The source of these data is patent US20190169241A1 (BOARD OF TRUSTEES OF THE UNIVERSITY OF ILLINOIS, published 2019).

Results are given in words; binding and its absence hold for the method and conditions named. Binding seen in cells or lysates may run through a third protein. A yes stands for co-enrichment or nearness to the bait. Other partners may have been found. A no says only that the protein was not detected with the bait. Tags and fused reporters may be left off the sequences shown.

The target of this test is FGFR. The experiment in a line: pull-down with peptide on streptavidin beads, mass spec analysis.

Regarding SRGTPVDERLFLIVRVTVQLSHP (biotin-tag (position not given)) [Biotin-DUF2C5 peptide (synthetic, residues 1238-1260 of KIF13B with a biotin-tag)], the binding entry is reported as “no binding”.
